## Library screening results

Data taken from ChEMBL document CHEMBL3988442, “University of Dundee, Small-Polar-MMV Screening Library” (2021).

Values are the deposited “Percent Effect”, in %. The controls that fix the scale are not given in the record; negative values are as filed. The compounds are a random part of those screened. Two or more numbers in one place are separate tests of the same structure; such repeats can differ widely.

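Viability assay of Plasmodium falciparum sporozoites; the read-out is not stated. The concentration is filed as 10 mM, unlikely as a test dose, so the dose is not known. Higher reads as lower viability (inferred: compounds with an IC50 in retests scored well above the rest). Strong results were mostly tested again. Of about 34,000 compounds tested this way, about 280 (0.84%) reached 50% or more in at least one test.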

With CC(CCN1CCn2nc(CNC(=O)N(C)C)cc2C1)c1ccccc1 (centres unmarked) the screen gave -2.941%. COc1ccc2c(ccn2CCC(=O)Nc2nc[nH]n2)c1 read -14.56%. Result for [H][C@]12CC[C@@]3(N=C(CC)N(CC(C)C)C3=O)[C@@]1([H])CN(C(=O)NCC(C)C)C2 was -0.974%. For Cc1nnc(CN(C)C2CCN(Cc3nc4ccccc4n3C)C2)o1 (centres unmarked) the result was -2.366%.

COc1ccccc1CC(=O)NS(=O)(=O)c1cncc(Br)c1 read -3.271%. Result for CN(CCc1ccccc1)Cc1c(C2CC2)[nH]c2ncccc12 was -0.6966%. With CNC(=O)C1CN(C(C)C)CCN1c1nc(C)cc(C)n1 (centres unmarked) the screen gave 1.705%. For CNC(=O)c1cc2c(nc1N(C)C)CCN(c1ncc(F)cn1)CC2.O=C(O)C(F)(F)F the result was 10.13%.

CCn1ccc(-c2cc(NCCCOc3ccccc3C)nc(C)n2)n1 gave -19.61%. For CCO[C@H]1CO[C@@]2(CCN(Cc3ccc4c(c3)OCO4)C2)C1.O=C(O)C(F)(F)F the result was -7.968%. For O=C(O)C(F)(F)F.O=C1N(CC2CC2)CCC12CCN(Cc1ccoc1)CC2 the result was 3.249%. CC(C)N1C[C@@H](CO)[C@H](c2ccccc2)S1(=O)=O gave -7.368%.

Result for c1cc(-c2cnccn2)cc(-c2ccn(CCN3CCCC3)n2)c1 was 10.24%. C/C(Cl)=C/CNC(=O)[C@H]1CC[C@]2(CC1)CN(C)C(=O)c1ccccc1O2 gave 5.518%. [H][C@]12CCC[C@@]1(COCC1CCOCC1)CN(C(=O)c1cccs1)C2 gave 9.156%. Result for Cc1nc2c(c(=O)n1C)CCN(Cc1cc3ccccc3[nH]1)CC2 was 11.32%.

CNC(=O)CN1CCC2(CCCN(CC3CCOC3)C2)CC1.O=C(O)C(F)(F)F.O=C(O)C(F)(F)F (centres unmarked) read 7.699%. COc1ccccc1OCC(=O)Nc1ncccc1OC(F)F read -0.8959%. For Cc1ccc2[nH]c(=O)c(CNCCCN3CCOCC3)cc2c1 the result was 10.53%. Cc1cnn(CC2CN(CC(=O)N(C)Cc3cnn(C)c3)CCO2)c1 (centres unmarked) gave 10.65%.

For NCCn1nc(C2CCN(C(=O)CC3CCCCC3)C2)c2nccnc21 (centres unmarked) the result was -22.72%. For CC(C)CS(=O)(=O)N1CCC2(CC1)CCn1c(-c3cnn(C)c3)cnc12 the result was 3.908%. For CC(NCc1c(C(C)C)nn(C)c1N1CCOCC1)C(=O)N(C)C (centres unmarked) the result was 14.82%. With O=C(CN1C=Nc2ccccc2S1(=O)=O)NCCc1cccs1 the screen gave 7.579%.

CS(=O)(=O)N1CCC(Nc2ccnc3ccc(Cl)cc23)CC1 read -7.88%. Result for Cc1cc(O)n2nc(C3CCN(C(=O)c4ccccn4)CC3)cc2n1 was 5.005%. Result for COc1ccc(F)cc1C(=O)N(C)Cc1cc(C)on1 was 0%. COc1cc(C(=O)Nc2nc(C)no2)ccc1OC1CCCC1 gave 11.07%.

CC(NC(=O)NCCCN1CCCC1)c1nncn1C (centres unmarked) gave 15.71% and 26.26% and 29.35%. COCCC(=O)N1CCC(c2cncc(Oc3cccnc3)n2)CC1 gave 10.99%. For COCCNC(=O)C1CN(C(N)=O)Cc2ccnn2C1 (centres unmarked) the result was 0.6745%. With O=C(O)C(F)(F)F.O=C(O)C(F)(F)F.[H][C@@]12CN(Cc3ccncc3)C[C@]1([H])[C@@H]2CC(=O)N1CCCC1 the screen gave 4.106%.

c1ccn2c(C3CCCN3Cc3nc(C4CC4)no3)nnc2c1 (centres unmarked) gave -1.432%. For COc1cccc(N2CCC(CNc3cc(C)nc4ncnn34)C2)c1 (centres unmarked) the result was 9.212%. Result for Cc1cc(S(=O)(=O)N2CCCc3cc(Br)ccc32)sc1C(=O)O was -3.676%. CN(Cc1ccsc1)C(=O)c1cccc(NS(C)(=O)=O)c1 read 3.434%.

With N#CC1(C(=O)N2CCCN(c3nccs3)CC2)CCCCC1 the screen gave 1.291%. With CCCN(c1ccccc1C(=O)O)S(=O)(=O)c1ccc2ccccc2c1 the screen gave -13.93%. O=C(O)C(F)(F)F.c1ccc(N2CCOC3(CCCN(c4nncs4)C3)C2)nc1 (centres unmarked) gave -5.698%. With Fc1cccc(Nc2nc(N3CCCC3)nc3c2CNCC3)c1 the screen gave 20.14%.

Cc1ncc(CN(C)C2CCCN(CCc3ccccc3)C2)n1C (centres unmarked) gave -9.386%. With Cc1nc(CN2CCCC(N(C)Cc3nc(C)c(C)o3)C2)no1 (centres unmarked) the screen gave -9.81%. Result for c1c[nH]c(CN2CCCC(Cc3ccc(NC4CCCC4)nn3)C2)n1 (centres unmarked) was 9.974%.